# Results: PubChem BioAssay AID651660 (Broad Institute, 2012)
# Chains of the proteins cited; added tags and fusions are not shown. Lines headed by an entry give the natural chain unless they say otherwise; changes in a name come on top.
# UniProt P43351: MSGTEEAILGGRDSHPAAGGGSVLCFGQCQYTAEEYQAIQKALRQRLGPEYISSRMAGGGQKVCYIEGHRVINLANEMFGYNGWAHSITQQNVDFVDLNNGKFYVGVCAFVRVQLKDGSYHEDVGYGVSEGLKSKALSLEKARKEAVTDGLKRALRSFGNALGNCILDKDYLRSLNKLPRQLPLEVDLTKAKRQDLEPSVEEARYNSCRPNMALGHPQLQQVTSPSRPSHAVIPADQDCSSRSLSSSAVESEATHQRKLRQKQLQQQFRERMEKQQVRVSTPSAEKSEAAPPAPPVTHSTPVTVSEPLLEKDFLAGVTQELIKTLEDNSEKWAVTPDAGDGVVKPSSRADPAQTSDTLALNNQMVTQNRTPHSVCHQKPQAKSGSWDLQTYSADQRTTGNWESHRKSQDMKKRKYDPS
# Out of some 1,900 compounds screened, about 15 (0.8%) were called active.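 The calls were made as follows: active = every replicate shows at least 50% inhibition; inconclusive = mean inhibition at least 50% but some replicate below; inactive = the rest.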 Some of the results follow.
# Target: DNA repair protein RAD52 homolog (Homo sapiens) (UniProt P43351)
# Experiment: RAD52 ssDNA annealing inhibitors, primary screen, biochemical, FRET, single point (AID 651660);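 also: 0% = median of neutral control wells and 100% = median of positive control wells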
# Conditions: Recombinant RAD52 ssDNA annealing, FRET fluorescence, 30 min; at 18.7 µM; active compounds read high
row,SMILES,inhibition
1,Oc1ccc(/C=C/c2cc(O)cc(O)c2)cc1,inactive: 2.23%
2,COc1ccc(C(=O)/C=C2/c3ccccc3CC(C)(C)N2C)cc1,inactive: -0.22%
3,O=C(CCC(=O)NCCO)NCCO,inactive: 4.45%
4,CNc1nc(Nc2ccccc2)nc(OCC(F)(F)F)n1,inactive: 0.049%
5,COc1cccc(OC)c1C(=O)NCCSC1CCCCC1,inactive: 1.35%
6,Oc1c(Cl)cc(Cl)c(Cl)c1Cc1c(O)c(Cl)cc(Cl)c1Cl,inactive: -0.573%
7,COc1cccc(-n2c(C)c3c(OC)cccc(=O)c3c2C)c1,inactive: -114%
8,COc1ccc2[nH]c3c(=O)n(/N=C/[C@H]4C(C)C=C(C)CC4C)c(=O)[nH]c3c2c1 (stereo partly drawn),inactive: -7.95%
9,COc1cc2c(cc1OC)C(c1cc(OC)c(OC)c(OC)c1)NCC2 (stereo not drawn),inactive: -6.09%
10,CSCCC(NC(=O)OC(C)(C)C)C(=O)Oc1ccc2c(=O)c(-c3ccc4c(c3)OCCO4)coc2c1 (stereo not drawn),inactive: 2.21%
11,CN(C)C(=O)C(CCN1CCC(O)(c2ccc(Cl)cc2)CC1)(c1ccccc1)c1ccccc1,inactive: 11.1%
12,Cn1c(=O)[nH]c2nnc(-c3ccc(Cl)c(Cl)c3)nc2c1=O,inactive: -2.22%
13,C=CCOc1ccc(C(=O)CC)cc1OC,inactive: 16%
14,CC(C(=O)O)c1ccc(-c2ccccc2)c(F)c1 (stereo not drawn),inactive: -20.1%
15,O=C(CCCC(=O)OCC1CCCO1)OCC1CCCO1 (stereo not drawn),inactive: -2.58%
16,Cn1c(=O)c2nc3ccccc3nc2n(C)c1=O,inactive: -13.2%
17,COc1ccc(/C=N\NC(=O)CCc2c(C)n[nH]c2C)c(OC)c1OC,inactive: 7.8%
18,CC(=O)N1N=C(c2cccs2)CC1c1ccc(C)o1 (stereo not drawn),inactive: -4.26%
19,O=C(Cc1c[nH]c2ccccc12)OCCOC(=O)Cc1c[nH]c2ccccc12,inactive: 2.87%
20,Cc1cc(=O)oc(C)c1C(=O)NCCC(C)C,inactive: -7.13%
21,O=C(O)CC(O)C(=O)O (stereo not drawn),inactive: 4.23%
22,Cc1ccsc1/C=N\NC(=O)c1ccc2c(c1)OCO2,inactive: -4.72%
23,CNCCCC1c2ccccc2C=Cc2ccccc21,inactive: 2.81%
24,CC(C)N(Cc1nccn1C)C(=O)CC1C(=O)NCCN1Cc1ccccc1C(F)(F)F (stereo not drawn),inactive: -12%
25,C[C@]12CCC(=O)C=C1CC[C@@H]1[C@@H]2[C@@H](O)C[C@@]2(C)[C@H]1CC[C@]2(O)C(=O)CO,inactive: -8.66%

# Look-ups from the results shown.
# inhibition, `O=C(O)CC(O)C(=O)O` (stereo not drawn) reads inactive: 4.23%
# inhibition, `O=C(CCC(=O)NCCO)NCCO` reads inactive: 4.45%
# inhibition, `CC(=O)N1N=C(c2cccs2)CC1c1ccc(C)o1` (stereo not drawn) reads inactive: -4.26%

# The list continues:

row,SMILES,inhibition
1,O=C(Nc1cccc(C(=O)O)c1)/C(=C\c1ccccc1)NC(=O)c1ccccc1,inactive: -4.18%
2,CC(=O)N1CCN(c2ccc(NC(=O)/C=C/c3ccccc3)cc2)CC1,inactive: -1.72%
3,COc1ccc(-c2coc3c(CN4CCOCC4)c(O)ccc3c2=O)cc1,inactive: 7.99%
4,N/C(=N\OC(=O)c1cccc(Br)c1)c1ccncc1,inactive: 4.52%
5,Nc1cccc2nc3ccccc3cc12,active: 99.5%
6,O=C(NC1CC1)C1CCN(C2CCN(C(=O)Cc3ccc(F)cc3)CC2)CC1,inactive: -24.2%
7,COC(=O)CN1C(=S)N(c2ccc(F)cc2)C(=O)C1CC(=O)Nc1ccccc1 (stereo not drawn),inactive: -1.21%
8,COc1ccc(CCN(C)CCCC(C#N)(c2ccc(OC)c(OC)c2)C(C)C)cc1OC (stereo not drawn),inactive: 10.9%
9,CCCc1cc(=O)[nH]c(=S)[nH]1,inactive: -9.29%
10,CCOC(=O)C(=O)Nc1ccc(Oc2ccccc2)cc1,inactive: 1.4%
11,COc1ccccc1C(=O)Nc1cc2cc(Br)ccc2oc1=O,inactive: -5.75%
12,CCCCC(=O)O[C@H]1CC[C@H]2[C@@H]3CCc4cc(O)ccc4[C@H]3CC[C@]12C,inactive: -4.64%
13,N=C(N)c1ccc(OCCCCCOc2ccc(C(=N)N)cc2)cc1,inactive: 17.2%
14,CCN(CC)CCN1C(=O)C(=O)/C(=C(/O)c2c(C)[nH]c(C(=O)OC)c2C)C1c1cccnc1 (stereo not drawn),inactive: 5.33%
15,CC(=O)C1=C(O)C(=O)N(CC(=O)O)C1c1ccccc1Cl (stereo not drawn),inactive: -2.25%
16,CC/C(=C1/C(=O)CC(C)(C)C(C(=O)OC)C1=O)N1CCCC1 (stereo not drawn),inactive: -6.04%
17,CC(=O)c1c(N)nc2n(c1=O)CCCCC2,inactive: 2.15%
18,O=C(O)[C@@H](O)c1ccccc1,inactive: -3.32%
19,C/C(CCc1oc2ccc(Cl)cc2c1-c1ccc(C)o1)=N\O,inactive: -11.8%
20,Nc1nc(Cl)nc2c1ncn2[C@H]1C[C@H](O)[C@@H](CO)O1,inactive: -10.2%
21,CN(Cc1c(C(=O)N(C)Cc2ccccc2)nc2ccccn12)CC1Cc2ccccc2O1 (stereo not drawn),inactive: -5.82%
22,N/C(Cc1ccc(Cl)cc1Cl)=N\OC(=O)c1ccc(Br)o1,inactive: -2.4%
23,c1ccc2c(c1)CCOC2CNCCCN1CCCCC1 (stereo not drawn),inactive: 10.7%
24,OCCC1CN(Cc2nc(-c3ccccc3)cs2)CCN1Cc1ccc(F)cc1 (stereo not drawn),inactive: -12.9%
25,CCN1C(=O)C(CC(=O)Nc2ccc(OC)cc2)N(CCc2ccc(F)cc2)C1=S (stereo not drawn),inactive: 10.5%

row,SMILES,inhibition
1,CC1(C)Oc2ccc(C#N)cc2[C@@H](N2CCCC2=O)[C@@H]1O,inactive: -2.72%
2,CC[N+](C)(C)Cc1ccccc1Br,inactive: 0.172%
3,O=C(NCc1ccccc1Cl)NC(=O)c1ccccc1,inactive: -5.59%
4,Cc1oncc1C(=O)Nc1ccc(C(F)(F)F)cc1,inactive: 1.57%
5,COc1ccc(C(Cl)=C(c2ccc(OC)cc2)c2ccc(OC)cc2)cc1,inactive: 3.47%
6,O=C(O)c1cccnc1Nc1cccc(C(F)(F)F)c1,inactive: -14.4%
7,C[C@]12CCC(=O)C=C1[C@H](O)C[C@@H]1[C@@H]2[C@@H](O)C[C@@]2(C)[C@H]1CC[C@]2(O)C(=O)CO,inactive: -6.84%
8,Cc1[nH]nc(-c2ccc(O)cc2O)c1Oc1ccccc1,inactive: 0.257%
9,CC(CCc1ccccc1)NCC(O)c1ccc(O)c(C(N)=O)c1 (stereo not drawn),inactive: 0.728%
10,CCc1cc2c(=O)c(-c3ccc4c(c3)OCCO4)coc2c(CN2CCCCC2C)c1O (stereo not drawn),inactive: 8.37%
11,Cc1ccc(Cl)c(OCCCN(C)Cc2ccccc2)c1,inactive: 5.98%
12,Cn1c(SCC(=O)c2ccccc2)nnc1-c1ccncc1,inactive: -2.42%
13,CN(C)CCCN1c2ccccc2Sc2ccccc21,inactive: 7.51%
14,Cc1cc(C(C)(C)C)c(O)c(C)c1CC1=NCCN1,inactive: -10.1%
15,Nc1c(C(=O)c2ccccc2)oc2ccccc12,inactive: -6.4%
16,C[C@]12CC[C@@H]3c4ccc(O)cc4CC[C@H]3[C@@H]1CC[C@@H]2OC(=O)CCC(=O)O,inactive: -1.23%
17,CC(=O)N(CCC(Cc1ccccc1)c1ccco1)Cc1ccco1 (stereo not drawn),inactive: -17.2%
18,O=C(NCc1ccc(N2CCCC2=O)cc1)c1cccc(Cl)c1,inactive: 0.043%
19,Cc1ccc2c(c1)c1c3n2CCCNC3CCC1 (stereo not drawn),inactive: 2.29%
20,COc1ccc(C2N3CC4(C)CN2CC(C)(C3)C4)cc1OC (stereo not drawn),inactive: 0.63%
21,CCC(=O)Oc1ccc(/C(CC)=C(\CC)c2ccc(OC(=O)CC)cc2)cc1,inactive: -4.46%
22,COc1ccc2c(c1OC)C(=O)OC2C1c2c(cc3c(c2OC)OCO3)CCN1C (stereo not drawn),inactive: 3.26%
23,COc1ccc(CCNC(=O)c2ccc(Cl)cc2)cc1OC,inactive: -3.26%
24,CCCN1C[C@H](CSC)C[C@@H]2c3cccc4[nH]cc(c34)C[C@H]21,inactive: 9.59%
25,Nc1cccc(C(=O)O)c1,inactive: 4.25%

row,SMILES,inhibition
1,COc1cc(CNCc2ccc(OC)c(OC)c2OC)cc(OC)c1,inactive: -2.96%
2,CCN1C(=O)C(CC(=O)Nc2ccc(F)cc2)N(Cc2ccco2)C1=S (stereo not drawn),inactive: -9.52%
3,COc1ccc2[nH]cc(C(=O)CCl)c2c1,inactive: 3.43%
4,Cc1[nH]c2ccccc2c1/C=C/c1nc2ccccc2c(=O)n1CCO,inactive: -5.68%
5,O=C(Nc1ccccc1)c1ccccc1CCc1ccccc1,inactive: -0.492%
6,Cc1ccc(CN2CCN(CCCc3ccccc3)CC2CCO)cc1 (stereo not drawn),inactive: -4.16%
7,CCN(Cc1cnn(C)c1)Cc1nc(C(c2ccccc2)c2ccccc2)no1,inactive: 1.94%
8,CC1=C(/C=C/C(C)=C/C=C/C(C)=C/C(=O)O)C(C)(C)CCC1,inactive: -5.74%
9,Cc1cc(=O)oc2cc(OC(C)C(=O)NCC3CCCO3)ccc12 (stereo not drawn),inactive: -5.47%
10,CCO/C([O-])=N/c1c[n+](N2CCOCC2)no1,inactive: -1%
11,COc1ccc(CCNc2ncnc3c2[nH]c2cc(OC)c(OC)cc23)cc1OC,active: 68.2%
12,COc1cc(C(=O)NCCCCCC(=O)O)cc(OC)c1OC,inactive: 0.198%
13,COCCOC(=O)c1c(C)oc2ccc(OCc3cc(C(=O)OC)oc3C)cc12,inactive: -1.18%
14,O=C1C(=O)c2ccccc2C(O)=C1c1ccccc1F,inactive: 9.88%
15,COc1cc(OC)c(C2C(C#N)=C(N)OC3=C2C(=O)CC(C)(C)C3)cc1OC (stereo not drawn),inactive: -2.55%
16,COc1ccc(C(=O)Oc2ccc3c(C)cc(=O)oc3c2C(C)=O)cc1,inactive: -5.82%
17,NS(=O)(=O)c1ccc(CNC(=O)c2cc(-c3ccccc3)nc3ccccc23)cc1,inactive: 4.47%
18,Fc1ccc(NC(=S)Nc2ccccc2Cl)cc1,inactive: 1.13%
19,O=C(O)C1Sc2[nH]c(=O)sc2C2c3ccc(O)cc3OC(=O)C12 (stereo not drawn),inactive: -468%
20,COc1ccc(C2NC(=O)c3ccccc3N2)cc1OC (stereo not drawn),inactive: -8.83%
21,COc1cc2c(cc1OC)C(=S)NC(C)(C)C2,inactive: -8.97%
22,CN1C(=O)C(O)(CC(=O)c2ccccc2O)c2cc(Br)ccc21 (stereo not drawn),inactive: -5.35%
23,O=C(/C=C/c1ccco1)N1CCN(c2ccccc2)CC1,inactive: -28.2%

# Copied from the listing (five entries):
row,SMILES,inhibition
8,CC1=C(/C=C/C(C)=C/C=C/C(C)=C/C(=O)O)C(C)(C)CCC1,inactive: -5.74%
9,Cc1cc(=O)oc2cc(OC(C)C(=O)NCC3CCCO3)ccc12 (stereo not drawn),inactive: -5.47%
10,CCO/C([O-])=N/c1c[n+](N2CCOCC2)no1,inactive: -1%
11,COc1ccc(CCNc2ncnc3c2[nH]c2cc(OC)c(OC)cc23)cc1OC,active: 68.2%
12,COc1cc(C(=O)NCCCCCC(=O)O)cc(OC)c1OC,inactive: 0.198%
